Measurements published in PubChem BioAssay AID493014 (National Center for Advancing Translational Sciences (NCATS), 2011).
The other results are listed elsewhere or left out. These are further read-outs of the screen, such as a control signal, another cell line or another target. No call is given for them. The list favours compounds with an active or inconclusive main result. Words in brackets tell the shape of the fitted curve; partial curves, single points and poor fits give uncertain potencies.

Assay: qHTS Assay to Find Inhibitors of Chronic Active B-Cell Receptor Signaling
Settings: ABC-DLBCL IkBa-CBG/CBR reporter, luminescence ratio (green luciferase fused to IkBa over red control in TMD8 lymphoma cells), 4 h
Procedure, shortened: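 TMD8 human ABC-DLBCL cells with doxycycline-inducible IκBα–green luciferase fusion and unfused red luciferase, in 0.5% FBS medium; compounds up to 46 uM, 4 h at 37C. Green/red luminescence ratio, filter-overlap corrected, fitted to concentration-response curves.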

[1] = measured here: CBR red luminescence, cell number
[2] = measured here: IkBa-CBG green luminescence

Structure (SMILES)	AC50 [1]	AC50 [2]
COc1ccc(NC(=S)NC(NC(=O)c2ccc(Cl)cc2Cl)C(Cl)(Cl)Cl)c([N+](=O)[O-])c1 (configuration not stated)	29.1 µM [falling, single point]	
O=C(CCC1COc2ccccc2O1)Nc1ccccn1 (configuration not stated)	0.461 µM [falling, partial curve, poor fit]	
CC(=O)COC(=O)c1ccc2noc(-c3ccccc3)c2c1	10 µM [falling, partial curve, poor fit]	
CCCCCOC(=O)NC1CCS(=O)(=O)C1 (configuration not stated)	4.47 µM [falling, single point]	
CC(C)(C)C(=O)Cn1ncc(N2CCCC2)c(Br)c1=O	35.5 µM [rising, single point]	
CCOC(=O)c1c(CN2CCOCC2)n(C)c2cc(Br)c(O)c(CN(C)C)c12	29.1 µM [rising, single point]	
O=C(Nc1ccc2nc(-c3ccc(Br)o3)[nH]c2c1)c1cccs1	2 µM [falling, full curve]	
CCOc1ccc(C2N(c3ccc(F)cc3)C(=O)C3CCCN32)cc1OC (configuration not stated)	0.0082 µM [rising, full curve, poor fit]	
Nc1n[nH]c(-c2ccc([N+](=O)[O-])cc2[N+](=O)[O-])n1	1.26 µM [rising, partial curve]	
CCCCCCn1c(N2CCCC2)nc2c1c(=O)n(C)c(=O)n2C	35.5 µM [falling, single point]	
COc1cc([N+](=O)[O-])cc(/C=N\NC(=O)C2COc3ccccc3O2)c1O (configuration not stated)	12.6 µM [falling, partial curve, poor fit]	
Cc1nn(-c2ccccc2)c(C)c1-c1cc(C(=O)N/N=C/c2ccc(O)cc2)[nH]n1	35.5 µM [falling, single point]	
O=C(Nc1ccccn1)c1ccc2c(c1)OCO2	10 µM [falling, partial curve]	
N#Cc1sc(NCc2ccccn2)nc1Cl	12.6 µM [rising, single point]	
COc1ccc2c(c1)O[C@H](c1ccc3c(c1)OCO3)[C@@H](OC(=O)Nc1cc(OC)c(OC)c(OC)c1)C2=O	13 µM [rising, partial curve]	18.4 µM [falling, single point]
O=c1c2ccccc2c(C=Nc2cccc(O)c2)c(O)n1-c1ccc2c(c1)OCO2	1.41 µM [rising, full curve, poor fit]	
Cc1ccccc1C(=O)Nc1ccc(C(=O)N/N=C/c2ccncc2)cc1	35.5 µM [falling, single point]	15.8 µM [rising, partial curve, poor fit]
CN(C(=O)CSc1n[nH]c(N)n1)C1CCCCC1	9.2 µM [rising, partial curve]	
O=C1Nc2ccccc2C12OCC1(CO2)COC2(OC1)C(=O)Nc1ccccc12 (configuration not stated)	0.58 µM [rising, full curve, poor fit]	
Cc1cc(NC(=O)COc2ncnc3sc(C)c(C)c23)no1	2.31 µM [falling, partial curve, poor fit]	
COC(=O)c1cc(Br)cn1S(=O)(=O)c1ccccc1	35.5 µM [rising, single point]	
COc1cc(/C=C2/C(=O)NN(c3ccc(Cl)cc3)C2=O)ccc1OC(=O)c1ccco1	29.1 µM [falling, single point]	

Structure (SMILES)	AC50 [1]	AC50 [2]
CC(C)Sc1nsc2nc(=O)c(/C=C3\C=Nc4ccccc43)c(N)n12	0.1 µM [rising, full curve, poor fit]	
CCCc1cc(C(=O)Nc2ccc(C(=O)OC)cc2)cs1	1.41 µM [falling, full curve]	
C=CCn1c(SCC(=O)N2CCOCC2)nc2sc3c(c2c1=O)CCCC3	29.1 µM [rising, single point]	
COc1cccc(NC(=O)C(=O)NCCCn2ccnc2)c1	14.1 µM [falling, single point]	
Cc1cc(NC(=O)CSc2nnc(-c3ccccc3)n2Cc2ccco2)no1	12.6 µM [falling, partial curve]	
Cc1c(Cl)cnc(NC(=O)COC(=O)c2ccc3ncsc3c2)c1Cl	16.4 µM [falling, single point]	
COc1cccc(CN(C)C(=O)c2cccc(OCc3ccccc3)c2)c1	35.5 µM [falling, partial curve, poor fit]	
CCS(=O)(=O)c1ccc2oc(SCC(=O)Nc3ccc(OC)cc3OC)nc2c1	5.01 µM [rising, partial curve]	
CC(=O)c1c(NCCc2ccccc2)nc(=S)n(-c2ccccc2)c1C	31.6 µM [rising, single point]	
CCOC(NC(=O)c1ccccc1)C(NC(=O)c1ccccc1)OCC (configuration not stated)	29.1 µM [rising, single point]	
CC(OC(=O)CNC(=O)c1ccccc1F)C(=O)Nc1nc(-c2ccccc2)cs1 (configuration not stated)	0.146 µM [rising, full curve, poor fit]	
NC(=O)NC(=O)COC(=O)c1ccccc1OCc1ccc(F)cc1	5.62 µM [rising, partial curve, poor fit]	
Cc1ccc(/C=N/n2cc(-c3ccccc3)[nH]c2=S)s1	31.6 µM [falling, single point]	
Cc1csc(NC(=O)c2ccccc2O)n1	8.91 µM [falling, partial curve]	
Cc1c(C(=O)Nc2ccc(F)cc2)oc2ccc(S(=O)(=O)N3CCCC3)cc12	2.59 µM [falling, partial curve, poor fit]	
COc1ccccc1OCC(=O)Nc1oc(-c2ccccc2)c(-c2ccccc2)c1C#N	14.6 µM [falling, partial curve, poor fit]	
O=[N+]([O-])c1ccc(O)c(/C=N/NC(=S)Nc2ccc(Cl)cc2Cl)c1	0.112 µM [falling, full curve, poor fit]	
CCc1cc2c(SCC(=O)Nc3ccc(Cl)cn3)ncnc2s1	1.64 µM [rising, partial curve]	
COC(C(=O)Nc1c(F)cccc1F)c1ccccc1 (configuration not stated)	3.55 µM [rising, partial curve, poor fit]	
Cc1nnc(SCC(=O)NC(=O)Nc2ccc3c(c2)OCCO3)s1	35.5 µM [falling, single point]	
CC(=O)c1ccc(N2CCN(C(=O)c3nn(Cc4ccccc4)c(=O)c4ccccc34)CC2)cc1	3.98 µM [falling, full curve]	
Cc1cc(S(=O)(=O)NCC(c2ccccc2)c2ccccc2)ccc1-n1cnnn1	8.2 µM [falling, partial curve, poor fit]	

Structure (SMILES)	AC50 [1]	AC50 [2]
COC(=O)c1[nH]c2ccccc2c1NC(=O)CNC1CCCCC1	16.4 µM [rising, single point]	
Clc1cccc(N/N=C/c2ccncc2)c1	1.03 µM [rising, full curve, poor fit]	
N=c1n(CCN2CCCCC2)c2ccccc2n1CC(=O)c1cccs1	25.1 µM [falling, single point]	
O=c1[nH]c2c(oc3ccccc32)c(=O)n1Cc1ccccc1	1.26 µM [falling, full curve]	
C=CCNC(=S)NCc1ccccc1	2.82 µM [falling, single point]	
COc1ccc(OC)c(/C=C2\Oc3cc(OCC(=O)N4CCC(C(=O)O)CC4)ccc3C2=O)c1	39.8 µM [rising, partial curve, poor fit]	
COc1ccccc1CC(=O)NC1CCN(Cc2ccccc2)CC1	3.98 µM [rising, partial curve]	
CC(Nc1c([N+](=O)[O-])c(=O)oc2ccccc12)C(Cl)c1ccccc1 (configuration not stated)	5.62 µM [falling, full curve, poor fit]	
CNC[C@H](CC1CCCCC1)NC[C@H](CO)NCC1(c2ccccc2)CC1	7.94 µM [falling, partial curve]	
CC(C)(C)NC(=O)NC(=O)COc1ccccc1C#N	29.1 µM [falling, single point]	
O=C(Nc1nc2ccc(F)cc2s1)C1=NN(c2ccccc2)C(=O)CC1	25.9 µM [falling, partial curve, poor fit]	
N/C(=N\c1nc2ccccc2o1)NC(=O)C(Cc1ccccc1)N1C(=O)c2ccccc2C1=O (configuration not stated)	20 µM [rising, single point]	
O=C(N/N=C/C(Cl)=C/c1ccccc1)c1ccncc1	31.6 µM [falling, single point]	
Cc1cc(C)c2nc3nc(C)c(C)cc3c(N)c2c1	7.94 µM [falling, partial curve]	
O=C(CCCN1C(=O)/C(=C/c2cccs2)SC1=S)Nc1ccccn1	12.6 µM [falling, partial curve]	
C1=C[C@@H]2CCN(Cc3ccccc3)Cc3cccc(c32)C1	29.1 µM [rising, single point]	
C#CCn1c(=NC(=O)c2ccc(Br)s2)sc2cccc(OC)c21	9.2 µM [falling, partial curve]	
Cn1nc(C(F)(F)F)c2cc(C(=O)Nc3ccc(F)cc3)sc21	25.1 µM [falling, single point]	
COCCNC(=O)c1ccc(CS(=O)(=O)c2ccc(C)cc2)o1	7.31 µM [rising, partial curve, poor fit]	
O=C(NCCCN1CCOCC1)c1ccc2c(=O)n(CCc3ccccc3)c(=O)[nH]c2c1	16.4 µM [rising, single point]	
CC1CCc2nc3ccc(S(=O)(=O)N4CCC(C(=O)NC5CCCC5)CC4)cc3c(C(=O)O)c2C1 (configuration not stated)	16.4 µM [falling, single point]	

By substructure: the entries above containing a COOH group
Structure (SMILES)	AC50 [1]	AC50 [2]
COc1ccc(OC)c(/C=C2\Oc3cc(OCC(=O)N4CCC(C(=O)O)CC4)ccc3C2=O)c1	39.8 µM [rising, partial curve, poor fit]	
CC1CCc2nc3ccc(S(=O)(=O)N4CCC(C(=O)NC5CCCC5)CC4)cc3c(C(=O)O)c2C1 (configuration not stated)	16.4 µM [falling, single point]	
